These are yes or no findings as the source states them, for the method shown. Binding seen in cells or lysates may run through a third protein. Some binding calls cover weakened binding; strength is not graded here.
Target: HA/Zbtb7b (UniProt Q64321)
Assay: co-IP; Hepa1c1c7 cells co-transfected with the indicated plasmids for 48 h, with MG-132; lysates (500-800 ug) incubated overnight at 4 °C with EZview Red ANTI-FLAG M2 Affinity Gel and EZview Red Anti-HA Affinity Gel; beads washed seven to eight times with cold RIPA buffer; immunoblotting

Amino acid sequences for entries named in this document (tags omitted).
UniProt Q64321: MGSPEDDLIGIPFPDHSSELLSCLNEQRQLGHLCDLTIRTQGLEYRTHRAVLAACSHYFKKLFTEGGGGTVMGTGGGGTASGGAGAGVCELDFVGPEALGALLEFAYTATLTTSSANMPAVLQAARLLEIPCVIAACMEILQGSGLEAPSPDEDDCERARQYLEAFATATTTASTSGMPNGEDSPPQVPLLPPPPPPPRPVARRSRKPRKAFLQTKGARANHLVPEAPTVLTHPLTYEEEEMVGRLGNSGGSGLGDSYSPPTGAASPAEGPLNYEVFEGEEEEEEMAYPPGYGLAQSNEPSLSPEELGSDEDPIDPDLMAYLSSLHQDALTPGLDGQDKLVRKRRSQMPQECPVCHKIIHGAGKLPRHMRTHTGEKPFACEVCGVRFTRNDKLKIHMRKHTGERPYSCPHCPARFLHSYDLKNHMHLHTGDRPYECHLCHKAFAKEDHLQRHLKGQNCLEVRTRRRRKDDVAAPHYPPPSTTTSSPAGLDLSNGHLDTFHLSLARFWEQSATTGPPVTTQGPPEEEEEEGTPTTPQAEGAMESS
UniProt E0CYQ0: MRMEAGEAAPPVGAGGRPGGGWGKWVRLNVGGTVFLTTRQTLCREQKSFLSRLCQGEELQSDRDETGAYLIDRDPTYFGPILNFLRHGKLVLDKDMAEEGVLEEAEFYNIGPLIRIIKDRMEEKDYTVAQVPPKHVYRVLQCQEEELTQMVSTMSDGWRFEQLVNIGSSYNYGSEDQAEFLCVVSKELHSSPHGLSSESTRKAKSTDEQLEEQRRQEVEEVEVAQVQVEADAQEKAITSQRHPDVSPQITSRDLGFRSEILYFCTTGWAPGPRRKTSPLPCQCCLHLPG

Kctd17/Flag (from UniProt E0CYQ0 1-289) was tested, and the binding was “binds”.

From publication PMC12411619
